Experimental findings from article PMC7616792, “The structural mechanism of dimeric DONSON in replicative helicase activation” (Molecular cell, 2023) are described below.

Assay [1] concerns the target T1, recombinant FLAG5, His6-tagged GINS (Psf1, Psf2, Psf3 and Sld5) (Xenopus laevis) (UniProt Q7ZT47+Q7ZT46+Q7ZT01+Q7ZT48).
T1 sequence 1: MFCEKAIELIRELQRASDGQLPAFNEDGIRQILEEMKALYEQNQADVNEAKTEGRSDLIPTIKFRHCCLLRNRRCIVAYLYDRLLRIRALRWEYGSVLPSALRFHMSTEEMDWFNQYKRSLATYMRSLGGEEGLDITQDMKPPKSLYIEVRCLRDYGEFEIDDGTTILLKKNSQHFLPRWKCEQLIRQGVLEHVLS
T1 sequence 2: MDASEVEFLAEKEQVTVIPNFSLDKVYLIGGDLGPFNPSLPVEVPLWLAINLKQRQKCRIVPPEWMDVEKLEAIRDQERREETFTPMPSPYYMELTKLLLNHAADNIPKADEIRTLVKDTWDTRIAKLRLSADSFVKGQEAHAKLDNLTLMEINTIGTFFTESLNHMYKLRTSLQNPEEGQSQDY
T1 sequence 3: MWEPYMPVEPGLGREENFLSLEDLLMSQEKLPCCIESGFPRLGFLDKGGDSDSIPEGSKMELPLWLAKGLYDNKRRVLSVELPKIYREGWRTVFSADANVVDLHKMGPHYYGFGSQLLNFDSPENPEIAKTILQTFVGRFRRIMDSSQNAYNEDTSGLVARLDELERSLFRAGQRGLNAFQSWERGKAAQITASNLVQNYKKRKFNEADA
T1 sequence 4: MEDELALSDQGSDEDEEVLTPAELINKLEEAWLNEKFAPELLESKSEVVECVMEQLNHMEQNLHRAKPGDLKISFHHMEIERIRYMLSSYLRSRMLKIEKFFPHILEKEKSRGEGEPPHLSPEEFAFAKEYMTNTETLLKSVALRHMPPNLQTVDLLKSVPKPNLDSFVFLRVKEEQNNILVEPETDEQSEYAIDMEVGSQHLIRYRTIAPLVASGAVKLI
Briefly: co-IP; recombinant FLAG-tagged GINS immunoprecipitated after incubation with recombinant DONSON variants; blot with an anti-DONSON antibody (Figure S5B); both purified.

The target in assay [2] is T2, human DONSON Met446Thr, GFP-tagged (second copy FLAG-tagged) (human) (UniProt Q9NYP3).
T2 sequence: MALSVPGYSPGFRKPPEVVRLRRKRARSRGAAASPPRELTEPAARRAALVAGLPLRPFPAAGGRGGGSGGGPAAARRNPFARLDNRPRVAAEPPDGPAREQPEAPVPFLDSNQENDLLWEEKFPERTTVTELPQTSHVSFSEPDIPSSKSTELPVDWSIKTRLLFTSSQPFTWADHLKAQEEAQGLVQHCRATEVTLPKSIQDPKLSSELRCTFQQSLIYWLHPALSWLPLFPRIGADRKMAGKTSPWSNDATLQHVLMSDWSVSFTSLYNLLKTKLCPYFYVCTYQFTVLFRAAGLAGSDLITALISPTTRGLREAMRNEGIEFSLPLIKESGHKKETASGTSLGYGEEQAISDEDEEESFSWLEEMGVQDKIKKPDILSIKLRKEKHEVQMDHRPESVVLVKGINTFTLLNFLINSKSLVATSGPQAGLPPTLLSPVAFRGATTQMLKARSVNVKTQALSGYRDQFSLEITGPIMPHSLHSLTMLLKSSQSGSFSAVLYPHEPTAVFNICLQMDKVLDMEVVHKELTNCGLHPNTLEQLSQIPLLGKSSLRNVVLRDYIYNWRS
Briefly: co-IP; 293FT cells transfected with GFP-tagged (and FLAG-tagged) DONSON, lysed with 0.5-1% NP40 and benzonase; GFP-DONSON captured on GFP-Trap agarose beads 5 h at 4°C, washed with 100-300 mM NaCl; blots for FLAG, GINS, MCM2, PCNA.

Assay [3] addresses T3, human DONSON Trp228Leu, GFP-tagged (second copy FLAG-tagged) (human) (UniProt Q9NYP3).
T3 sequence: T2 sequence with W228L, T446M
Described as above.

Positions count from the first letter of the chain named. Results are given in words; binding and its absence hold for the method and conditions named. For part of these data: In cells and extracts the contact can be indirect. Sequences can lack the tags named with a protein.

B1: DONSONΔ24 (truncation of residues 1–24) (domain or fragment, Xenopus laevis, UniProt Q5U4U4 25-579, looked up)
chain: RSRSEASKTGLSPFSPGDVIKRVPGLRPFSPGPNKGAGVKRRNPFASLENTVCSPVKRRAETVAEYGAASLEPRALSAVRPSCLGQDSPEPPQFNSVEDVIWGDPLAADADPLVKTESPEKPAPACEIPKGSVTFPADWSLKTRLLFTSSHSFSWADHLKAQEEAQGLVMQCRATAVNLPHSIQEPKLSTDLRCAFQQSLVHWIHPSLPWVQLFPRIGVDRKMAGKNTPWSQDESLQQVLMSEWALSFTSLYNLLKAKLCPYFYVCTYQFTVLFRAAGLAGSDVITAVMSPTTRGLREAMKNEGITFSQPLVEDDTGKKQKKPEAASQGDINPEKENGTAEADEASDESDEDESFSWLEEMGVEDKIKKPDSISIKLRKEKNEVKLDHKPESVVLVKGTNTFTLLNFLINCKSIVAAAGLQAGLPPTLLSPVAFRGATMHALKARSVNVKTRVNSGYKDQFSLEITGPIMPHSLHSLTMLLQSAQRGSFSAGLYTHEPTAVFNTPIHSQAVKEISADLQNCGLHPCTVEQLTQVNELGKLSLRHLEMTDYRYTWK
notes: DONSON, Xenopus laevis, without residues 1-24; See the note of m17 on a possible Myc tag; also called DONSON D24 (D1-24); pET28a-DONSON Δ24 (1-24 removed); source: E. coli BL21 (DE3), purified (Ni-NTA)
With B1, the binding result in assay [1] was “no binding”.

B2: human DONSON Met446Thr, GFP-tagged (second copy FLAG-tagged) (protein, UniProt Q9NYP3 1-566)
chain: T2 sequence
Consider B2, for which, in assay [2], the binding entry is “no binding”.

B3: human DONSON Trp228Leu, GFP-tagged (second copy FLAG-tagged) (protein, UniProt Q9NYP3 1-566)
chain: T2 sequence with W228L, T446M
In the case of B3, in assay [3], the binding entry was “no binding”.
